Values from PubChem BioAssay AID1224830 (NIAID, 2016)
Here is a random part of about 18,000 reagents tested. About 2,900 of all reagents (16%) were called active. 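Calls are made per well; low scores hint the gene aids the LPS response, high scores that it dampens it.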 Repeated entries: four replicate wells of each siRNA pool. No sequences are given here.

Assay: 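Host factors that control LPS-induced TNF expression in human macrophages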 (primary screen)
System: human THP-1 monocytic leukaemia cells, TNF dual-luciferase reporter clone, PMA-differentiated to macrophage-like cells
Knock-down reagent: siRNA pool against human genes, 50 nM
Timing: LPS for 4 h, given about 3 days after siRNA transfection
Conditions: bacterial LPS (TLR4 ligand), 10 ng/ml
Detection: 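Ratio of firefly to renilla light, scaled to the plate median and expressed as a robust z-score per replicate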
Direction: TNF reporter robust z-score: higher = stronger TNF reporter response to LPS
Call rule: 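Each well counts as active if its z-score is over 2.8 or under -1.5; controls are left without a call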

gene knocked down	TNF reporter robust z-score	call
RAB44	-0.49	inactive
RAB44	0.78	inactive
RAB44	-0.35	inactive
RAB44	-0.27	inactive
VAV2	0.18	inactive
VAV2	-0.3	inactive
VAV2	-0.63	inactive
VAV2	-1.2	inactive
KCND1	-0.18	inactive
KCND1	0.92	inactive
KCND1	1.08	inactive
KCND1	0.45	inactive
C1QTNF12	0.88	inactive
C1QTNF12	0.07	inactive
C1QTNF12	0.51	inactive
C1QTNF12	0.48	inactive
ZNF592	-0.45	inactive
ZNF592	0.4	inactive
ZNF592	-1.79	active
ZNF592	-1.54	active
KLRB1	0.44	inactive
KLRB1	0.74	inactive
KLRB1	-0.45	inactive
KLRB1	1.46	inactive
SF3A2	0.24	inactive
SF3A2	0.96	inactive
SF3A2	0.67	inactive
SF3A2	0.69	inactive
ZCWPW1	0.08	inactive
ZCWPW1	1	inactive
ZCWPW1	-0.14	inactive
ZCWPW1	0.99	inactive
TEX264	0.12	inactive
TEX264	0.65	inactive
TEX264	1.91	inactive
TEX264	0.62	inactive
FGF5	0.57	inactive
FGF5	0.23	inactive
FGF5	0.67	inactive
FGF5	1.74	inactive
RABGAP1L	0.75	inactive
RABGAP1L	-0.08	inactive
RABGAP1L	-0.25	inactive
RABGAP1L	-0.88	inactive
DNAJC5	-0.03	inactive
DNAJC5	-0.9	inactive
DNAJC5	-0.74	inactive
DNAJC5	0.72	inactive
SPATA31D1	-0.89	inactive
SPATA31D1	-0.81	inactive
SPATA31D1	-0.12	inactive
SPATA31D1	-0.61	inactive
CA3	-1.03	inactive
CA3	0.48	inactive
CA3	0.58	inactive
CA3	0.94	inactive
LRRIQ4	-0.5	inactive
LRRIQ4	-0.99	inactive
LRRIQ4	-1.02	inactive
LRRIQ4	-1.06	inactive
ZNRF1	-0.68	inactive
ZNRF1	1.32	inactive
ZNRF1	-0.87	inactive
ZNRF1	-0.54	inactive
TNNI3	-0.8	inactive
TNNI3	0.01	inactive
TNNI3	-0.53	inactive
TNNI3	0.37	inactive
ZFPL1	0.19	inactive
ZFPL1	0.52	inactive
ZFPL1	1.04	inactive
ZFPL1	1.67	inactive
F12	-1.46	inactive
F12	-0.04	inactive
F12	-0.45	inactive
F12	0.83	inactive
EXOC3L1	1.26	inactive
EXOC3L1	1.72	inactive
EXOC3L1	1.96	inactive
EXOC3L1	2.46	inactive
LINC02694	-1.4	inactive
LINC02694	-0.24	inactive
LINC02694	-1.34	inactive
LINC02694	0.41	inactive
SHC2	-0.49	inactive
SHC2	-0.71	inactive
SHC2	-0.84	inactive
SHC2	-1.26	inactive
PYDC1	-1.36	inactive
PYDC1	-1.39	inactive
PYDC1	-0.91	inactive
PYDC1	-1.23	inactive
FRK	1.26	inactive
FRK	0.65	inactive
FRK	0.87	inactive
FRK	1.89	inactive
RCN1	-0.22	inactive
RCN1	0.38	inactive
RCN1	-0.3	inactive
RCN1	-0.04	inactive
CEP85	0.48	inactive
CEP85	1.41	inactive
CEP85	1.01	inactive
CEP85	-0.19	inactive
NOTCH2NLA	-1.39	inactive
NOTCH2NLA	-0.34	inactive
NOTCH2NLA	-0.91	inactive
NOTCH2NLA	-0.53	inactive
KMT5B	-1.3	inactive
KMT5B	-1.31	inactive
KMT5B	-1.25	inactive
KMT5B	-0.83	inactive

9 neighbouring reagents from above, for reference:
gene knocked down	TNF reporter robust z-score	call
VAV2	0.18	inactive
VAV2	-0.3	inactive
VAV2	-0.63	inactive
VAV2	-1.2	inactive
KCND1	-0.18	inactive
KCND1	0.92	inactive
KCND1	1.08	inactive
KCND1	0.45	inactive
C1QTNF12	0.88	inactive
